The subject of assay [1] is 6-AmHap-Abs. In kind it is binding, mouse. Particulars: for IC50: read-out: Heterologous MST IC50; for Ki: read-out: Heterologous MST Ki. Here is the method: The final concentrations of 6-AmHap-Abs, MorHap-Cy5 in the capillaries were 10 nM and 0.25 nM, respectively. The same procedure was performed for the binding of the 6-AmHap-Abs to the other drugs but different concentrations of competitor working solutions were used.
For the heroin-binding assay in the presence of esterase inhibitors, a working solution containing 6-AmHap antibody (40 nM) and 80 μM iso-OMPA/80 μM BNPP was incubated for 2 h at RT. An equal volume of MorHap-Cy5 (1 nM) was then mixed with the 6-AmHap-Abs/iso-OMPA/BNPP mixture and the reaction mixture was further incubated for 20 min in the dark at RT. The rest of the procedure was performed as described above. The final concentrations of 6-AmHap-Abs, iso-OMPA/BNPP, and MorHap-Cy5 in the capillaries were 10 nM, 20 μM/20 μM, and 0.25 nM, respectively.
The MST measurements were done on a Monolith™ NT.115^Pico instrument from NanoTemper Technologies GmbH. The instrument was equipped with an IR laser (wavelength, 1475 ± 15 nm; power, 120 mW maximum) and a red fluorescence channel that can detect red dyes, such as Cy5 and Alexa Fluor 647. The samples were measured at an LED power of 20% and an MST power of 25% with a laser-on time of 30 s and a laser-off time of 5 s. MST measurements of 15–16 samples typically take ~ 20 min.
In the competition MST procedures, a constant concentration of MorHap-Cy5:antibody complex was titrated with an increasing concentration of drug competitor. […] The software plots Fnorm against 15–16 increasing drug competitor concentration points to yield the binding curve, and subsequently fits the curve to obtain the IC50. For presentation purposes, the fraction bound was manually calculated and plotted using the equation above where x is the Fnorm at a given competitor concentration. The binding affinities (Ki) from the heterologous MST assays were then derived using the Ki-Finder software from the Nanotemper website. In order to calculate the Ki, the following parameters must be entered into the Ki-Finder website: the binding affinity of the tracer against the antibody (Kd), the concentration of the antibody (I0), the concentration of the tracer (labeled T0), the highest concentration of the competitor (L0), and the IC50 of the competitor to the antibody. The website then plots both the binding curve and competition curve to produce the competitor Ki, also known as the Kd of the antibody to the drug competitor.

In assay [2] the test system is 6-AmHap-Abs. Particulars: read-out: Competition ELISA Homologous, IC50; cited from earlier work. For orientation: In an ELISA, binding on a coated surface is turned into a signal by an enzyme label.
Assay [3] has as its system 6-AmHap-Abs. In kind it is binding, mouse. Particulars: read-out: Competition ELISA Heterologous, IC50.

Read-outs that look alike come from different tables or passages of the source.

Usually IC50 stands for the point on the concentration scale where inhibition reaches its midpoint. What is called Ki is a dissociation constant, usually derived from enzyme kinetics or from competition with a known ligand.

In the case of `C=CCN1CC[C@]23c4c5ccc(O)c4O[C@H]2C(=O)CC[C@@]3(O)[C@H]1C5` [Naloxone, naloxone], the values for the IC50 in the assay on 6-AmHap-Abs [1], with 6-AmHap-Abs [2] and with 6-AmHap-Abs [3] were 3.0378 ± 0.00137 µM, above 1000 µM and 2.05 ± 1.29 µM, respectively. The Ki at 6-AmHap-Abs [1] turned out to be 1.38 ± 0.147 µM.

As to `CCOC(=O)C1(c2ccccc2)CCN(C)CC1` [Meperidine, meperidine], the IC50 was 1.1723 ± 0.00113 µM in the assay with 6-AmHap-Abs [1], 524 ± 143 µM in the assay on 6-AmHap-Abs [2] and 7.03 ± 6.06 µM in the assay on 6-AmHap-Abs [3]. Further, the Ki on 6-AmHap-Abs [1] worked out at 0.552 ± 0.262 µM.

Values taken from article PMC5956019, “A rapid solution-based method for determining the affinity of heroin hapten-induced antibodies to heroin, its metabolites, and other opioids” (Analytical and Bioanalytical Chemistry, 2018).
